{"source": "PubChem BioAssay AID1508597 (Cure First, 2020)", "test": "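Knock-downs altering ovarian cancer cell survival with or without PARP inhibitor rucaparib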 (primary screen)", "cells": "human ovarian carcinoma lines grown from tumours: OCI-P5x (papillary serous) and OCI-C5x (clear cell)", "reagent": "siRNA pool against human genes, 1.25 pmol siRNA per well", "timing": "72 h or 96 h, depending on the cell culture", "conditions": "rucaparib 20 µM (about IC30) or vehicle, present until read-out", "rucaparib or vehicle": "Vehicle", "cell line": "OCI-C5x (clear cell)", "read-out": "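Luminescent ATP-based viability assay read 72 or 96 h after transfection, depending on culture, given as normalised percent viability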", "reading the numbers": "viability, normalised: higher = more viable cells remaining", "call rule": "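a well counts as a hit if its normalised viability is under 80 percent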", "meaning of the calls": "active = viability under 80%; inactive = viability 80% or more", "note": "This is a random part of the about 2,100 reagents, in one setting of the screen. 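Calls flag viability under 80% in either arm, not effects specific to rucaparib; the reference for percent is not stated.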 A number with no mark means an inactive call. A reagent listed more than once was tested more than once; the source does not tell the runs apart. No sequences are given here. The record does not give: the 100% reference."}
{"gene":"CUBN","technical replicate":"1","viability, normalised (%)":"27.6 (active)"}
{"gene":"CUBN","technical replicate":"2","viability, normalised (%)":"40 (active)"}
{"gene":"CUBN","technical replicate":"3","viability, normalised (%)":"39.8 (active)"}
{"gene":"BCKDK","technical replicate":"1","viability, normalised (%)":"57.9 (active)"}
{"gene":"BCKDK","technical replicate":"2","viability, normalised (%)":"53.1 (active)"}
{"gene":"BCKDK","technical replicate":"3","viability, normalised (%)":"42.6 (active)"}
{"gene":"DLG1","technical replicate":"1","viability, normalised (%)":82.6}
{"gene":"DLG1","technical replicate":"2","viability, normalised (%)":"75.4 (active)"}
{"gene":"DLG1","technical replicate":"3","viability, normalised (%)":"71.4 (active)"}
{"gene":"MED15","technical replicate":"1","viability, normalised (%)":"48.2 (active)"}
{"gene":"MED15","technical replicate":"2","viability, normalised (%)":"57.2 (active)"}
{"gene":"MED15","technical replicate":"3","viability, normalised (%)":"57.5 (active)"}
{"gene":"ARL8B","technical replicate":"1","viability, normalised (%)":"50.1 (active)"}
{"gene":"ARL8B","technical replicate":"2","viability, normalised (%)":"58.7 (active)"}
{"gene":"ARL8B","technical replicate":"3","viability, normalised (%)":"40.7 (active)"}
{"gene":"ZRANB3","technical replicate":"1","viability, normalised (%)":"64.2 (active)"}
{"gene":"ZRANB3","technical replicate":"2","viability, normalised (%)":"68.8 (active)"}
{"gene":"ZRANB3","technical replicate":"3","viability, normalised (%)":"46.6 (active)"}
{"gene":"ERCC8","technical replicate":"1","viability, normalised (%)":"64.6 (active)"}
{"gene":"ERCC8","technical replicate":"2","viability, normalised (%)":"75.1 (active)"}
{"gene":"ERCC8","technical replicate":"3","viability, normalised (%)":"62 (active)"}

5 entries from above in another layout.
gene | technical replicate | viability, normalised (%)
ARL8B | 1 | 50.1 (active)
ARL8B | 2 | 58.7 (active)
ARL8B | 3 | 40.7 (active)
ZRANB3 | 1 | 64.2 (active)
ZRANB3 | 2 | 68.8 (active)

Next results follow:
{"gene":"UBE2N","technical replicate":"1","viability, normalised (%)":"44.5 (active)"}
{"gene":"UBE2N","technical replicate":"1","viability, normalised (%)":"40.1 (active)"}
{"gene":"UBE2N","technical replicate":"2","viability, normalised (%)":"72.7 (active)"}
{"gene":"UBE2N","technical replicate":"2","viability, normalised (%)":"50.6 (active)"}
{"gene":"UBE2N","technical replicate":"3","viability, normalised (%)":"56.3 (active)"}
{"gene":"UBE2N","technical replicate":"3","viability, normalised (%)":"42.6 (active)"}
{"gene":"GUK1","technical replicate":"1","viability, normalised (%)":"31.4 (active)"}
{"gene":"GUK1","technical replicate":"2","viability, normalised (%)":"41.4 (active)"}
{"gene":"GUK1","technical replicate":"3","viability, normalised (%)":"40.7 (active)"}
{"gene":"PROX1","technical replicate":"1","viability, normalised (%)":"32.8 (active)"}
{"gene":"PROX1","technical replicate":"2","viability, normalised (%)":"36 (active)"}
{"gene":"PROX1","technical replicate":"3","viability, normalised (%)":"36.9 (active)"}
